Assay results: PubChem BioAssay AID504847 (National Center for Advancing Translational Sciences (NCATS), 2011)
Out of some 400,000 compounds screened, about 3,700 (0.93%) were called active. The inconclusive results got no clear call from the source; some entries with a clear call stand among them for comparison. The call rests on the fitted dose curve; in most records, active means well fitted inhibition curve with a large enough effect; inconclusive means small, poorly fitted or top-dose-only effect, or another doubt; inactive means no such curve, though single readings can be large or run the other way. Where the call is inconclusive, the potency comes from a doubtful curve fit.

Chains of the proteins cited; added tags and fusions are not shown. Lines headed by an entry give the natural chain unless they say otherwise; changes in a name come on top.
UniProt P11473: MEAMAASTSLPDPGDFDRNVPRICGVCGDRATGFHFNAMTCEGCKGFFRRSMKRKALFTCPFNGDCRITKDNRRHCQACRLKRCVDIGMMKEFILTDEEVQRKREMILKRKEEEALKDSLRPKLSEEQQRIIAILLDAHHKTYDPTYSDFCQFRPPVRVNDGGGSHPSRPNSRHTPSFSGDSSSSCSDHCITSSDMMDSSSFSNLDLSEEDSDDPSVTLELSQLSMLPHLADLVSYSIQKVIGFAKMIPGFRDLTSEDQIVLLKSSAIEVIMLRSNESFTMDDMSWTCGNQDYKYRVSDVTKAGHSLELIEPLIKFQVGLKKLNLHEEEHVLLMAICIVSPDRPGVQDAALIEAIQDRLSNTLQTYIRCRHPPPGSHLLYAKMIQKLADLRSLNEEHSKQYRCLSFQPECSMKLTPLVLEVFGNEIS

These molecules were tested against Vitamin D3 receptor (Homo sapiens) (UniProt P11473) (assay: Inhibitors of the vitamin D receptor (VDR): qHTS). Settings: VDR-SRC2-3 peptide fluorescence polarization, 2 h; max response, negative = inhibition: stronger effect = lower value.
In short: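 Two reagent solutions held at 4 deg C in the dark were dispensed, compounds pinned at 23 nl, and the mixture incubated 2 h at room temperature. Read-out: fluorescence polarization of VDR–SRC2-3 peptide binding.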
On the % scale 0 is the no-effect control and ±100 the full control effect; potency means the concentration at half of the fitted maximal effect.

Max response, negative = inhibition, inactive:
O=C(COc1ccc(Cl)cc1Cl)NNC(=S)Nc1ccc(F)cc1 -9.09%, CCOC(=O)c1ccc(N=NN(C)C)cc1 3.16%, CC(=O)CCc1oc2ccc(NC(C)=O)cc2c1-c1ccc(C)o1 -9.32%, COCCNc1ncnc2ccc(-c3c(C)noc3C)cc12 -8.23%, Cc1ccc(OC(C)C(=O)Nc2nonc2-c2ccc(Br)cc2)cc1C (centres undefined) 8.78%, O=C(CSc1nccn1-c1ccc(F)cc1)Nc1ccc(OC(F)(F)F)cc1 1.48%, Cc1nc2c3ccccc3nc(NNC(=O)CCC(=O)NCCC(C)C)n2n1 -9.97%, CCOC(=O)C1CCCN(C(=O)c2ccc([N+](=O)[O-])cc2)C1 (centres undefined) 6.33%, Cc1ccc(C)c(S(=O)(=O)N2CCN(C(=O)Cc3ccccc3)CC2)c1 6.19%, COc1cc(OC)cc(C(=O)Nc2ccccc2-c2nc3ccccc3s2)c1 2.71%, O=S(=O)(c1ccc(SCCO)nc1)N1CCOCC1 22.4%, Cc1cc(C)c(NC(=O)C(C)n2nc(-c3ccc(C)c(C)c3)ccc2=O)c(C)c1 (centres undefined) 7.46%

Potency, active:
CCOc1ccc(S(=O)(=O)Nc2cc(SCC(=O)O)c(O)c3ccccc23)cc1 17.8 µM, O=C(Nc1ccccc1)c1nnsc1S(=O)(=O)c1ccc(Cl)cc1 25.1 µM, CN(C)c1ccc(C(c2nnnn2C(C)(C)C)N2CCN(C(=O)c3ccco3)CC2)cc1 (centres undefined) 15.8 µM, CCc1cc2c(=O)n(Cc3ccco3)c(SCc3c(C)noc3C)nc2s1 79.4 µM, COc1ccc(N2CCN(C(=O)c3ccc(N(C)S(=O)(=O)c4ccc(OC)cc4)cc3)CC2)cc1 89.1 µM, O=C(CCN1CCOCC1)c1ccc(Br)cc1 22.4 µM, CCN(CCCNC(=O)c1ccc2c(c1)NC(=O)CN2C)c1cccc(C)c1 79.4 µM, Cc1nn(-c2ccccc2)c(OC(=O)C(C)C)c1Sc1ccccc1 70.8 µM

Potency, inconclusive:
Cc1ccc(C)n1-c1sc2c(c1C#N)CCC(C)C2 (centres undefined) 44.7 µM [inhibitor, partial curve, poor fit], CCCNC(=O)CCn1c(=S)oc2ccccc21 35.5 µM [inhibitor, partial curve, poor fit], CN(C)c1nc(Nc2ccc(Cl)c(Cl)c2)nc(N(C)C)n1 31.6 µM [inhibitor, partial curve, poor fit], O=C(CSC1=NC2(CCCCC2)N=C1c1ccccc1)Nc1ccc2c(c1)OCCO2 70.8 µM [inhibitor, partial curve, poor fit], COc1cc(/C=C/C(=O)c2cccc([N+](=O)[O-])c2)cc(OC)c1OC 22.4 µM [inhibitor, full curve, poor fit], O=[N+]([O-])c1ccc(CN2CCN(c3nc4ccccc4s3)CC2)cc1 5.62 µM [inhibitor, partial curve, poor fit], CCCCC1=CC2=C(c3ccco3)C(=O)C(C)(OC(=O)c3ccc(OC)cc3)C(=O)C2=CN1CC(C)C (centres undefined) 89.1 µM [inhibitor, single point], O=S(=O)(Nc1ccccc1OC(F)F)c1ccc(S(=O)(=O)N2CCCC2)cc1 79.4 µM [inhibitor, single point], Cc1ccccc1-n1nc2c(c1NC(=O)c1c(-c3ccccc3Cl)noc1C)CSC2 39.8 µM [inhibitor, partial curve, poor fit], CCn1c(CSc2nc3ccccc3s2)nnc1SCC(=O)c1ccc(Cl)cc1 3.55 µM [inhibitor, partial curve, poor fit], COc1cc2c(cc1NC(=O)CSc1nnc(Cc3cccs3)n1Cc1ccco1)oc1ccccc12 79.4 µM [inhibitor, partial curve, poor fit], COc1ccc(-n2ccnc2SCC(=O)NC2CCCC2)cc1 89.1 µM [inhibitor, single point], N#C/C(=C\c1ccc(-c2cc(Cl)ccc2Cl)o1)C(=O)Nc1cccc2ncccc12 35.5 µM [inhibitor, partial curve, poor fit], CCCCCCCCCCCCN1C(=O)CSC1c1cccnc1 (centres undefined) 31.6 µM [inhibitor, full curve], CCOc1ccccc1C(=O)N(Cc1ccc(C)o1)C1CCS(=O)(=O)C1 (centres undefined) 28.2 µM [inhibitor, partial curve, poor fit], Cc1ccnc(N2CCC(C(=O)Nc3ccc4c(c3)OCCO4)CC2)n1 89.1 µM [inhibitor, single point], COc1cc(C(=S)N2CCOCC2)cc(OC)c1OS(=O)(=O)c1ccc(C)cc1 79.4 µM [inhibitor, single point], O=C(c1csnn1)N1CCC2(CCCN(c3cccc(-c4ccccc4)c3)C2)CC1 25.1 µM [inhibitor, partial curve, poor fit], COc1cc(/C=C/c2[nH]c(=O)[nH]c(=O)c2[N+](=O)[O-])cc(OC)c1O 100 µM [inhibitor, single point], Cc1[nH]c(C)c(C(=O)/C=C/c2ccc([N+](=O)[O-])cc2)c1C 89.1 µM [inhibitor, single point], CC1(C(=O)NCCN2CCOCC2)C=CCN1C(=O)c1ccccc1 (centres undefined) 89.1 µM [inhibitor, partial curve, poor fit], O=C(COc1ccccc1)Nc1cc(NC(=O)COc2ccccc2)cc(C(=O)O)c1 70.8 µM [inhibitor, single point], CCSc1nnc2ccc(-c3ccc(OC)c(OC)c3)nn12 79.4 µM [inhibitor, partial curve, poor fit], Cc1ccc(Cl)cc1NC(=O)C(C)n1nnc2sc(-c3ccccc3)cc2c1=O (centres undefined) 31.6 µM [inhibitor, single point]
